Record: PubChem BioAssay AID1259314 (Drosophila RNAi Screening Center, 2017)

- Aim: 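Transmembrane protein genes affecting ATP after manganese overload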 (primary screen)
- Cells: Drosophila S2R+ cells
- Reagent: long dsRNA against Drosophila genes
- Timing: 5 days (4 days knock-down, then 1 day metal exposure)
- Conditions: manganese chloride added to 15 mM for 24 hours
- Read-out: 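Luciferase ATP signal used as a proxy for viable cell number, reported as one averaged z-score per dsRNA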
- Direction: mean ATP z-score: higher = more ATP than the plate average, more viable cells under manganese
- Active means: 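Called active when the mean ATP z-score is above 1.5 or below -1.5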
- Calls: active = strong ATP change, up or down; inactive = no strong ATP change
This is an unselected part of about 3,100 deposited reagents. Of all reagents, 289 (9.3%) are marked active. 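Active includes both higher and lower ATP than plate average; check the z-score sign for direction.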 A number with no mark means an inactive call. A plus sign joins genes that one reagent is predicted to hit. Not stated in the record: the amount of reagent.

With knock-down of CG9536 [DRSC03254] the results were mean ATP z-score -0.358.
Depletion of CG9536 [DRSC24736] resulted in: mean ATP z-score -1.43.
Gr64d + Gr64e [DRSC28375] scored mean ATP z-score -1.33.
Gr64d + Gr64e [DRSC39759] scored mean ATP z-score -0.32.
Depletion of Gr64d + Gr64e [DRSC39760] came out at: mean ATP z-score -0.698.
Depletion of hoe2 (hoepel2) [DRSC00459] resulted in: mean ATP z-score -0.155.
For hoe2 (hoepel2) [DRSC39471], the entry reads mean ATP z-score -0.204.
CG32432 [DRSC11744] showed mean ATP z-score -0.814.
alien + CG17906 [DRSC02641] showed mean ATP z-score 0.64.
alien + CG17906 [DRSC24008] gave mean ATP z-score 0.187.
schlank [DRSC18102] gave mean ATP z-score -0.369.
Depletion of Gr8a (Gustatory receptor 8a) [DRSC18043] came out at: mean ATP z-score 0.171.
After knock-down of Esp (Epidermal stripes and patches) [DRSC16664], the screen gave mean ATP z-score 0.227.
For Osi20 (Osiris 20) [DRSC12568], the values are mean ATP z-score -0.311.
Knock-down of Osi20 (Osiris 20) [DRSC28630] gave: mean ATP z-score -0.154.
After knock-down of CG3339 [DRSC13821] the results were mean ATP z-score -0.875.
Depletion of CG3339 [DRSC15479] resulted in: mean ATP z-score -0.481.
After knock-down of CG9240 [DRSC20177], the record shows mean ATP z-score 0.115.
Knock-down of CG5880 [DRSC15906] gave: mean ATP z-score 0.313.
After knock-down of CG5880 [DRSC39828], the screen gave mean ATP z-score -0.211.
With knock-down of Itgbn (Integrin betanu subunit) [DRSC03493], the screen gave mean ATP z-score 0.737.
Itgbn (Integrin betanu subunit) [DRSC39788] showed mean ATP z-score -0.583.
Knock-down of PGRP-LB (Peptidoglycan recognition protein LB) [DRSC14926] came out at: mean ATP z-score -0.426.
With knock-down of PGRP-LB (Peptidoglycan recognition protein LB) [DRSC39813], the screen gave mean ATP z-score 6.03 (active).
Silencing of Sarm (Sterile alpha and Armadillo motif) [DRSC08906] resulted in: mean ATP z-score 0.0215.
With knock-down of Sarm (Sterile alpha and Armadillo motif) [DRSC08907] the results were mean ATP z-score 0.211.
After knock-down of Sarm (Sterile alpha and Armadillo motif) [DRSC10038], the record shows mean ATP z-score 0.757.
Depletion of Sarm (Sterile alpha and Armadillo motif) [DRSC10927] resulted in: mean ATP z-score 0.00311.
Against Sarm (Sterile alpha and Armadillo motif) [DRSC10929] the deposit lists mean ATP z-score -0.89.
After knock-down of CG8008 [DRSC07053], the screen gave mean ATP z-score -1.45.
Silencing of CG8008 [DRSC39472] came out at: mean ATP z-score 0.283.
Against Vha16-2 (Vacuolar H[+] ATPase 16kD subunit 2) [DRSC10873], the values are mean ATP z-score -0.719.
With knock-down of Vha16-2 (Vacuolar H[+] ATPase 16kD subunit 2) [DRSC25504] the results were mean ATP z-score 1.33.
Against CG4942 [DRSC10462] the deposit lists mean ATP z-score -0.0834.
Silencing of CG4942 [DRSC39879] came out at: mean ATP z-score -0.797.
Depletion of Octbeta3R (Octopamine beta3 receptor) [DRSC21853] resulted in: mean ATP z-score 0.712.
Knock-down of Octbeta3R (Octopamine beta3 receptor) [DRSC25327] resulted in: mean ATP z-score -0.355.
With knock-down of Karybeta3 (Karyopherin beta 3) [DRSC12355], the screen gave mean ATP z-score -0.961.
Against Karybeta3 (Karyopherin beta 3) [DRSC39901], the entry reads mean ATP z-score -0.637.
Against CG12061 [DRSC20715], the entry reads mean ATP z-score 0.736.
After knock-down of CG12061 [DRSC39829] the results were mean ATP z-score -0.923.
Depletion of CG10465 [DRSC04848] resulted in: mean ATP z-score 0.342.
CG10465 [DRSC39896] gave mean ATP z-score 0.553.
With knock-down of tank [DRSC00461], the record shows mean ATP z-score 0.457.
With knock-down of Or10a (Odorant receptor 10a) [DRSC20264], the screen gave mean ATP z-score 0.0932.
With knock-down of Or10a (Odorant receptor 10a) [DRSC27634], the record shows mean ATP z-score 0.462.
With knock-down of Tsp47F (Tetraspanin 47F) [DRSC07325], the screen gave mean ATP z-score -1.17.
After knock-down of ppk7 (pickpocket 7) [DRSC03236], the screen gave mean ATP z-score -0.222.
Mct1 (Monocarboxylate transporter 1) [DRSC18681] gave mean ATP z-score 0.29.
After knock-down of Mct1 (Monocarboxylate transporter 1) [DRSC29006], the record shows mean ATP z-score 0.446.
After knock-down of GABA-B-R3 (metabotropic GABA-B receptor subtype 3) [DRSC00561], the screen gave mean ATP z-score -0.607.
Silencing of GABA-B-R3 (metabotropic GABA-B receptor subtype 3) [DRSC29404] resulted in: mean ATP z-score 0.871.
Against Ac3 (Adenylate cyclase 3) [DRSC03692], the entry reads mean ATP z-score 1.28.
Ac3 (Adenylate cyclase 3) [DRSC39826] scored mean ATP z-score 1.14.
Knock-down of bves [DRSC20520] gave: mean ATP z-score 0.524.
bves [DRSC20555] showed mean ATP z-score 0.203.
With knock-down of pHCl-1 (pH-sensitive chloride channel 1) [DRSC09401] the results were mean ATP z-score 0.519.
For pHCl-1 (pH-sensitive chloride channel 1) [DRSC09991], the entry reads mean ATP z-score -0.241.
pHCl-1 (pH-sensitive chloride channel 1) [DRSC10589] gave mean ATP z-score -0.366.
mah (mahogany) [DRSC14645] showed mean ATP z-score -0.306.
For mah (mahogany) [DRSC28300], the values are mean ATP z-score 0.402.

Copied from above, 8 entries:
Esp (Epidermal stripes and patches) [DRSC16664] — mean ATP z-score = 0.227
Osi20 (Osiris 20) [DRSC12568] — mean ATP z-score = -0.311
Osi20 (Osiris 20) [DRSC28630] — mean ATP z-score = -0.154
CG3339 [DRSC13821] — mean ATP z-score = -0.875
CG3339 [DRSC15479] — mean ATP z-score = -0.481
CG9240 [DRSC20177] — mean ATP z-score = 0.115
CG5880 [DRSC15906] — mean ATP z-score = 0.313
CG5880 [DRSC39828] — mean ATP z-score = -0.211
